At least one compound was matched to its structure with a doubt left.
Biological target: PCSK9 (Homo sapiens, UniProt Q8NBP7)
Assay: SPR binding studies (BIACORE3000)
Details: 25° C., phosphate buffer pH 7.4; compounds run at 10 nM, 100 nM and 1 micro mole, concentration of the value not stated
Experimental: Instrumentation: BIACORE3000 from GE Life Sciences was used and the Interaction analysis was performed at 25° C.
Buffers: phosphate buffer pH 7.4 supplied by Biacore supplemented with 0.01% dimethyl sulfoxide (DMSO) was used as running buffer during the assay.
Immobilization of Ligand: Sensor chip CM5 was used for analysis. The sensor chip consists of a carboxymethyl-modified dextran polymer linked to a gold-covered glass support. The ligand was diluted to 10 micro gram/ml in 10 mM sodium acetate, pH5.0 and immobilized to the sensor chip, using amine coupling. Running buffer without DMSO was used during immobilization. The surface was activated by injecting a solution containing 0.2M N-ethyl-N′-dimethyl aminopropyl-carbodiimide (EDC) and 50 mM N-hydroxy succinimide (NHS). The system was set for Aim for immobilization of about 1000 RU and the surface was blocked by injecting 1 Mehanolamine at pH 8.5. Then the surface was washed with 50 mM NaOH by injecting two 30 second-pulses to remove off non covalently bound ligand and to stabilize the baseline (automated procedure). Activated dextran was used as a reference surface. To ensure highest sensitivity the SPR Detector response was normalized before running the assay. By calibrating the detector at various light intensities under Conditions of total internal reflection (automated procedure). […]

Amino acid sequences for entries named in this document (tags omitted). Residues count along the entry.
UniProt Q8NBP7, 153-692: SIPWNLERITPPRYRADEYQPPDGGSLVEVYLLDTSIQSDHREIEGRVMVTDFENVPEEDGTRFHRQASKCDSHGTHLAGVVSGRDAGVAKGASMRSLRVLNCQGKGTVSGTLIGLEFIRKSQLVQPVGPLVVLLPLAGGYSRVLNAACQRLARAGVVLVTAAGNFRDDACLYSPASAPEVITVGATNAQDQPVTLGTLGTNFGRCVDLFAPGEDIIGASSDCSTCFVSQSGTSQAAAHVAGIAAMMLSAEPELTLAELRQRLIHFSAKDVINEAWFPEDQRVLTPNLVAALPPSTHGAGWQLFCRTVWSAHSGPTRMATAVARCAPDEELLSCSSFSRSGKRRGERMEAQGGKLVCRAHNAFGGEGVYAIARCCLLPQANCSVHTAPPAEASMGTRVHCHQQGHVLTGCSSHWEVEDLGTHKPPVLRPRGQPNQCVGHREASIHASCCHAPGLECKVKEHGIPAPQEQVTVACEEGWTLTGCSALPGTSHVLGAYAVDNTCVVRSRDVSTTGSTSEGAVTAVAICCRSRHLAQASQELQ

Compound: Cc1oc(-c2ccccc2)nc1CCC1COC(C)(C(=O)NCC(=O)N2CCOCC2)OC1 (stereo not shown) [Example 47, 2-methyl-5-(2-(5-methyl-2-phenyloxazol-4-yl)ethyl)-N-(2-morpholino-2-oxoethyl)-1,3-dioxane-2-carboxamide]
- Relative response (RU): 2.64 RU
